This test has as its target HA-MDM2 (human) (UniProt Q00987). The test is described as follows: co-IP; HCT116 p53-/- cells transfected with tagged proteins for 48 hr; lysates immunoprecipitated with anti-Flag or anti-HA antibody, western blot. For orientation: Immunoblotting shows a protein as a band on a membrane.

By UniProt entry, the sequences of proteins in these tests, tags left out.
UniProt Q00987: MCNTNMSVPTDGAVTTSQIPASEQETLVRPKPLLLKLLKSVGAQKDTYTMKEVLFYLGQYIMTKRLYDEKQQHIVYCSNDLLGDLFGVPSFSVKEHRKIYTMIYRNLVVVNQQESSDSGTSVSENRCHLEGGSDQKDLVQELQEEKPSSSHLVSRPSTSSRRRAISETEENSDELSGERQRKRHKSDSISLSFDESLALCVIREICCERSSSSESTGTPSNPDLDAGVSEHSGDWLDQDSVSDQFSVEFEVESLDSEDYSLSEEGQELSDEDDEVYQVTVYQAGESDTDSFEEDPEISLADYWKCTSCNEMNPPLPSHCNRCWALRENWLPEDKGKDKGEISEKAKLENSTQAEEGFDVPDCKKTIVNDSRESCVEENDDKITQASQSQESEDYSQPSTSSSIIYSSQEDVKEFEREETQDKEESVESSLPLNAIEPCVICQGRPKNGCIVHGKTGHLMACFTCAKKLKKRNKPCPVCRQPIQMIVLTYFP

No constants are given. Whether binding was seen depends on the method and setting. Binding seen in cells or lysates may run through a third protein.

Myc-SPIN1 (from UniProt Q9Y657 1-262): the binding result is listed as “no binding”.

The values are drawn from article PMC5871334.
